Assay results: publication PMC4513131
No constants are given. Whether binding was seen depends on the method and setting. In cells and extracts the contact can be indirect. Some entries that bind do so weakly or less than the wild type. Sequences can lack the tags named with a protein.

Amino acid sequences for entries named in this document (tags omitted). Residues count along the entry.
UniProt P43220, residues 24-463: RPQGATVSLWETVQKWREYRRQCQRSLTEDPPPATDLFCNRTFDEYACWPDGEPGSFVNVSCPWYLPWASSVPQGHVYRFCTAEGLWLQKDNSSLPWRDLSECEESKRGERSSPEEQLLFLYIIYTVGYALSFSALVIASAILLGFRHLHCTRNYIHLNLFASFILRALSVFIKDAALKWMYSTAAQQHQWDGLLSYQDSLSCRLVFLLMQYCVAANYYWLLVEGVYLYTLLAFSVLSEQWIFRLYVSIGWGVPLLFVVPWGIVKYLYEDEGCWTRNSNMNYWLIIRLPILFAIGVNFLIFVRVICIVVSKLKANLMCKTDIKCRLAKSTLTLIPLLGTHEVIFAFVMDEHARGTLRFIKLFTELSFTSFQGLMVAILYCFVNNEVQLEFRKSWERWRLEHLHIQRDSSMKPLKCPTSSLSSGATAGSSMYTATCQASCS

T1: FLAG-tagged ZIP6 (UniProt Q13433)
T1 sequence: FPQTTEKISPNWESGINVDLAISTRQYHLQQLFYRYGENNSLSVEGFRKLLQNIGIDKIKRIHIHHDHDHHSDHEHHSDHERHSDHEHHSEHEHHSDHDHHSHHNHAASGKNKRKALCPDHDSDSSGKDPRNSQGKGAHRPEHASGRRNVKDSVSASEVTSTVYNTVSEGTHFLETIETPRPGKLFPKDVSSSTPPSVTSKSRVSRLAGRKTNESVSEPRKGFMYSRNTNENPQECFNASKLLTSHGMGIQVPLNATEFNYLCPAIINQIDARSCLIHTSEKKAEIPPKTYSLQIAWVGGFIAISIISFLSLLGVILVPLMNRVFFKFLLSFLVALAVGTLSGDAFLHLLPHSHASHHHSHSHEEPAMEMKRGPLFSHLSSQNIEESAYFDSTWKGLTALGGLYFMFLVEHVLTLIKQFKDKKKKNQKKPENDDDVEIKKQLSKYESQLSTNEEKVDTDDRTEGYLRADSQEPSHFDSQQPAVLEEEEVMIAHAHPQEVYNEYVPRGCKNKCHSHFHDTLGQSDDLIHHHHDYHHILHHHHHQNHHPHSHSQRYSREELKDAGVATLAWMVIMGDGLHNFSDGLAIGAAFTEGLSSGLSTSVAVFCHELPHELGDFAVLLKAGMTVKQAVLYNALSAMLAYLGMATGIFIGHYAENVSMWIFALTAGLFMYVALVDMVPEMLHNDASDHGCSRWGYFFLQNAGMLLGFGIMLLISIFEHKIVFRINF


How the values were obtained:
[1] = target: T1, FLAG-tagged ZIP6; experiment: co-IP; tagged plasmids cotransfected into MIN6 cells; anti-FLAG coimmunoprecipitation; 2.5% input and 50% eluent loaded; immunoblot with anti-HA or anti-V5
[2] = target: FLAG-tagged GLP-1R (UniProt P43220); experiment: as above

Row | binding [1] | binding [2] | Molecule
1 | binds | – | His-V5-tagged GLP-1R (from UniProt P43220 24-463) (receptor)
2 | – | binds | HA-tagged ZIP7 (protein, UniProt Q92504 1-469) MARGLGAPHWVAVGLLTWATLGLLVAGLGGHDDLHDDLQEDFHGHSHRHSHEDFHHGHSHAHGHGHTHESIWHGHTHDHDHGHSHEDLHHGHSHGYSHESLYHRGHGHDHEHSHGGYGESGAPGIKQDLDAVTLWAYALGATVLISAAPFFVLFLIPVESNSPRHRSLLQILLSFASGGLLGDAFLHLIPHALEPHSHHTLEQPGHGHSHSGQGPILSVGLWVLSGIVAFLVVEKFVRHVKGGHGHSHGHGHAHSHTRGSHGHGRQERSTKEKQSSEEEEKETRGVQKRRGGSTVPKDGPVRPQNAEEEKRGLDLRVSGYLNLAADLAHNFTDGLAIGASFRGGRGLGILTTMTVLLHEVPHEVGDFAILVQSGCSKKQAMRLQLLTAVGALAGTACALLTEGGAVGSEIAGGAGPGWVLPFTAGGFIYVATVSVLPELLREASPLQSLLEVLGLLGGVIMMVLIAHLE
